According to PubChem BioAssay AID248 (DTP/NCI, 2004):
The list does not hold the whole screen: it is rich in T/C values a quarter to a half above the control, in often repeated tests (any T/C) and in doses without a T/C. Further doses and runs are listed elsewhere. T/C: endpoint of the treated group in % of that of the vehicle group. Some doses have a count of surviving animals in place of a T/C: the source files T/C as zero there, which appears to mark a toxic dose or a test without result, not a measured value. Some doses without a T/C left all or most animals alive at the check, yet need not have been tolerated: the source hardly ever lists a survival T/C far under the control, and the zero likely stands for such cases as well. Counts of survivors are from the toxicity check (mostly the fifth day) where no day follows; animals may have died later. Schedule codes are those of the source, read here as Q, the interval in days (D) or hours (H), X, the number of doses. Some schedules carry Z or #; the key to these is not given. For survival time, the PubChem record calls one and a half times the control and up active, and a quarter to a half above the control has no call in these data; cut-offs in other NCI protocols can differ. Some entries hold several experiments; the values are given in rising order. Marks such as (2×) stand for listed records that agree.

System: L1210 leukemia ip in BDF1 mice, survival T/C
Test: NCI In Vivo Anticancer Drug Screen. Data for tumor model L1210 Leukemia (intraperitoneal) in B6D2F1 (BDF1) mice
Conditions: higher T/C = longer survival
[1] = T/C endpoint: mean survival time, dose: 100.0 mg/kg/injection, schedule: Q04DX002 (ip), vehicle: saline with Tween-80
[2] = T/C endpoint: mean survival time, dose: 50.0 mg/kg/injection, schedule: Q04DX003 (ip), vehicle: saline
[3] = T/C endpoint: mean survival time, dose: 100.0 mg/kg/injection, schedule: Q04DX003 (ip), vehicle: saline
[4] = T/C endpoint: mean survival time, dose: 200.0 mg/kg/injection, schedule: Q04DX003 (ip), vehicle: saline
[5] = T/C endpoint: mean survival time, dose: 400.0 mg/kg/injection, schedule: Q04DX003 (ip), vehicle: saline

CC[N+](C)(CC)c1ccccc1
survivor count (T/C endpoint: mean survival time, dose: 100.0 mg/kg/injection, schedule: Q04DX002 (ip), vehicle: saline): 0 of 3 | survivor count (T/C endpoint: mean survival time, dose: 200.0 mg/kg/injection, schedule: Q04DX002 (ip), vehicle: saline): 0 of 3 | survivor count (T/C endpoint: mean survival time, dose: 400.0 mg/kg/injection, schedule: Q04DX002 (ip), vehicle: saline): 0 of 3

CC1(C)OC2COC(c3[nH]nc4c(=O)[nH]c(=O)[nH]c34)C2O1 (configuration not stated)
T/C (T/C endpoint: mean survival time, dose: 50.0 mg/kg/injection, schedule: Q01DX009 (ip), vehicle: saline): 131 % of control | survivor count (T/C endpoint: mean survival time, dose: 200.0 mg/kg/injection, schedule: Q01DX005 (ip), vehicle: saline): 1 of 6

CNC(=N)c1ccc(NC(=N)c2ccc(NC(=N)c3ccc(NC(=N)c4ccc(C(=N)NC)cc4)cc3)cc2)cc1
T/C (T/C endpoint: mean survival time, dose: 8.0 mg/kg/injection, schedule: Q01DX015 (ip), vehicle: water): 128 % of control | T/C (T/C endpoint: mean survival time, dose: 11.0 mg/kg/injection, schedule: Q01DX Z (ip), vehicle: water): 147 % of control | T/C (T/C endpoint: mean survival time, dose: 15.0 mg/kg/injection, schedule: Q01DX015 (sc), vehicle: water): 139 % of control | survivor count (T/C endpoint: mean survival time, dose: 33.0 mg/kg/injection, schedule: Q01DX015 (ip), vehicle: water): 0 of 6 | survivor count (T/C endpoint: mean survival time, dose: 37.0 mg/kg/injection, schedule: Q01DX015 (sc), vehicle: water): 1 of 10 | survivor count (T/C endpoint: mean survival time, dose: 60.0 mg/kg/injection, schedule: Q01DX001 (ip), vehicle: water): 0 of 6 | survivor count (T/C endpoint: mean survival time, dose: 66.0 mg/kg/injection, schedule: Q01DX015 (ip), vehicle: water): 0 of 6

COc1nc(N)c(C(N)=O)cc1C#N
survivor count (T/C endpoint: mean survival time, dose: 175.0 mg/kg/injection, schedule: Q04DX003 (ip), vehicle: Klucel (hydroxypropylcellulose) (HPC)): 2 of 6 | survivor count (T/C endpoint: mean survival time, dose: 350.0 mg/kg/injection, schedule: Q04DX003 (ip), vehicle: Klucel (hydroxypropylcellulose) (HPC)): 1 of 6

CCCCCCC(=O)O[C@H]1CC[C@H]2[C@@H]3CCC4=CC(=O)CC[C@]4(C)[C@H]3CC[C@]12C
survivor count (T/C endpoint: median survival time, dose: 64.0 mg/kg/injection, schedule: Q04DX024 (ip), vehicle: other): 6 of 10 | survivor count (T/C endpoint: median survival time, dose: 128.0 mg/kg/injection, schedule: Q01DX008 (ip), vehicle: other): 5 of 10 | survivor count (T/C endpoint: median survival time, dose: 128.0 mg/kg/injection, schedule: Q01DX016 (ip), vehicle: other): 6 of 10 | survivor count (T/C endpoint: median survival time, dose: 256.0 mg/kg/injection, schedule: Q01DX008 (ip), vehicle: other): 5 of 10 | survivor count (T/C endpoint: median survival time, dose: 512.0 mg/kg/injection, schedule: Q04DX003 (ip), vehicle: other): 6 of 10 | survivor count (T/C endpoint: median survival time, dose: 1024.0 mg/kg/injection, schedule: Q01DX001 (ip), vehicle: other): 0 of 10 | survivor count (T/C endpoint: median survival time, dose: 1024.0 mg/kg/injection, schedule: Q08DX002 (ip), vehicle: other): 0 of 10 | survivor count (T/C endpoint: median survival time, dose: 2048.0 mg/kg/injection, schedule: Q01DX001 (ip), vehicle: other): 0 of 10

O=[N+]([O-])C=C1CCCCC1
survivor count (T/C endpoint: mean survival time, dose: 400.0 mg/kg/injection, schedule: Q01DX001 (ip), vehicle: saline with Tween-80): 1 of 6

C[n+]1ccccc1/C=C/c1ccc2cccc(O)c2n1
survivor count (T/C endpoint: mean survival time, dose: 64.0 mg/kg/injection, schedule: Q01DX015 (ip), vehicle: saline): 0 of 6 | survivor count (T/C endpoint: mean survival time, dose: 150.0 mg/kg/injection, schedule: Q01DX001 (ip), vehicle: saline): 0 of 6 | survivor count (T/C endpoint: mean survival time, dose: 300.0 mg/kg/injection, schedule: Q01DX001 (ip), vehicle: saline): 0 of 6

CCOc1ccc(N=Cc2cccc([N+](=O)[O-])c2)cc1
T/C [1]: 94, 95, 101 % of control | survivor count [1]: 3 of 3 | T/C (T/C endpoint: mean survival time, dose: 200.0 mg/kg/injection, schedule: Q04DX002 (ip), vehicle: saline with Tween-80): 87, 92, 94, 105 % of control | T/C (T/C endpoint: mean survival time, dose: 400.0 mg/kg/injection, schedule: Q04DX002 (ip), vehicle: saline with Tween-80): 91, 94 (2×), 97 % of control

O=C(O)c1cc(Cl)cc2c1-c1ccc(Cl)cc1C2Br (configuration not stated)
survivor count (T/C endpoint: mean survival time, dose: 37.5 mg/kg/injection, schedule: Q01DX009 (ip), vehicle: carboxymethylcellulose (CMC)): 3 of 6 | survivor count (T/C endpoint: mean survival time, dose: 75.0 mg/kg/injection, schedule: Q01DX009 (ip), vehicle: carboxymethylcellulose (CMC)): 4 of 6 | survivor count (T/C endpoint: mean survival time, dose: 300.0 mg/kg/injection, schedule: Q01DX001 (ip), vehicle: carboxymethylcellulose (CMC)): 1 of 6

O=N[O-].[Co].[N-]=C=S.[NH2-].[NH2-].[NH2-].[NH2-]
T/C (T/C endpoint: mean survival time, dose: 25.0 mg/kg/injection, schedule: Q01DX009 (ip), vehicle: saline): 130 % of control | T/C (T/C endpoint: mean survival time, dose: 45.0 mg/kg/injection, schedule: Q01DX009 (ip), vehicle: saline): 130 % of control | survivor count (T/C endpoint: mean survival time, dose: 400.0 mg/kg/injection, schedule: Q04DX003 (ip), vehicle: saline with Tween-80): 0 of 6

CCC[N+](C)(C)CCCCOCCCC[N+](C)(C)CCC
survivor count (T/C endpoint: mean survival time, dose: 25.0 mg/kg/injection, schedule: Q04DX003 (ip), vehicle: saline): 0 of 6 | survivor count [2]: 0 of 6 | survivor count [3]: 0 of 6 | survivor count [4]: 0 of 6 | survivor count [5]: 0 of 6

O=c1cc(-c2ccccc2)nc(SCc2ccccc2Cl)[nH]1
survivor count (T/C endpoint: mean survival time, dose: 50.0 mg/kg/injection, schedule: Q01DX Z (ip), vehicle: methylcellulose (MC)): 6 of 6 | survivor count (T/C endpoint: mean survival time, dose: 100.0 mg/kg/injection, schedule: Q01DX Z (ip), vehicle: methylcellulose (MC)): 6 of 6 | survivor count (T/C endpoint: mean survival time, dose: 200.0 mg/kg/injection, schedule: Q01DX Z (ip), vehicle: methylcellulose (MC)): 6 of 6

O=C1C=CC(=NCl)C=C1
survivor count (T/C endpoint: mean survival time, dose: 3.75 mg/kg/injection, schedule: Q01DX015 (ip), vehicle: carboxymethylcellulose (CMC)): 6 of 6 | survivor count (T/C endpoint: mean survival time, dose: 20.0 mg/kg/injection, schedule: Q01DX001 (ip), vehicle: carboxymethylcellulose (CMC)): 3 of 6 | survivor count (T/C endpoint: mean survival time, dose: 40.0 mg/kg/injection, schedule: Q01DX001 (ip), vehicle: carboxymethylcellulose (CMC)): 0 of 6 | survivor count (T/C endpoint: mean survival time, dose: 50.0 mg/kg/injection, schedule: Q01DX001 (ip), vehicle: carboxymethylcellulose (CMC)): 0 of 4 | survivor count (T/C endpoint: mean survival time, dose: 80.0 mg/kg/injection, schedule: Q01DX001 (ip), vehicle: carboxymethylcellulose (CMC)): 0 of 6 | survivor count (T/C endpoint: mean survival time, dose: 100.0 mg/kg/injection, schedule: Q01DX001 (ip), vehicle: carboxymethylcellulose (CMC)): 0 of 4 | survivor count (T/C endpoint: mean survival time, dose: 200.0 mg/kg/injection, schedule: Q01DX001 (ip), vehicle: carboxymethylcellulose (CMC)): 0 of 4 | survivor count (T/C endpoint: mean survival time, dose: 400.0 mg/kg/injection, schedule: Q01DX001 (ip), vehicle: carboxymethylcellulose (CMC)): 0 of 4

NC(N)=N/N=C/CN1C(=O)c2ccccc2C1=O
survivor count (T/C endpoint: mean survival time, dose: 240.0 mg/kg/injection, schedule: Q01DX Z (ip), vehicle: methylcellulose (MC)): 0 of 6 | survivor count (T/C endpoint: mean survival time, dose: 360.0 mg/kg/injection, schedule: Q01DX Z (ip), vehicle: methylcellulose (MC)): 0 of 6 | survivor count (T/C endpoint: mean survival time, dose: 480.0 mg/kg/injection, schedule: Q01DX Z (ip), vehicle: methylcellulose (MC)): 0 of 6 | survivor count (T/C endpoint: mean survival time, dose: 600.0 mg/kg/injection, schedule: Q01DX Z (oral), vehicle: methylcellulose (MC)): 2 of 6 | survivor count (T/C endpoint: mean survival time, dose: 720.0 mg/kg/injection, schedule: Q01DX Z (oral), vehicle: methylcellulose (MC)): 1 of 6 | survivor count (T/C endpoint: mean survival time, dose: 840.0 mg/kg/injection, schedule: Q01DX Z (oral), vehicle: methylcellulose (MC)): 0 of 6

c1ccc(Cc2cccc[n+]2Cc2ccccc2)cc1
survivor count [2]: 2 of 3 | survivor count [3]: 0 of 3 | survivor count [4]: 0 of 3 | survivor count [5]: 0 of 3

COc1ccc(C=[N+](C)CCc2ccc(OC)c(OC)c2)cc1OC
survivor count (T/C endpoint: mean survival time, dose: 400.0 mg/kg/injection, schedule: Q01DX009 (ip), vehicle: saline): 0 of 6 | T/C [5]: 134 % of control

O=[N+]([O-])c1ccc(Oc2nc(Cl)nc(Oc3ccc([N+](=O)[O-])cc3)n2)cc1
survivor count (T/C endpoint: mean survival time, dose: 100.0 mg/kg/injection, schedule: Q04DX003 (ip), vehicle: Klucel (hydroxypropylcellulose) (HPC)): 3 of 3 | survivor count (T/C endpoint: mean survival time, dose: 200.0 mg/kg/injection, schedule: Q04DX003 (ip), vehicle: Klucel (hydroxypropylcellulose) (HPC)): 3 of 3 | survivor count (T/C endpoint: mean survival time, dose: 400.0 mg/kg/injection, schedule: Q04DX003 (ip), vehicle: Klucel (hydroxypropylcellulose) (HPC)): 3 of 3
